Reference: article PMC9288479
No constants are given. Whether binding was seen depends on the method and setting. Binding seen in cells or lysates may run through a third protein. These calls come from enrichment with a bait or labelling near it, and not all partners need be listed. Where a sequence is shown, tags or fusion partners need not be part of it.

Chains of the proteins cited; added tags and fusions are not shown.
UniProt Q9DBH0: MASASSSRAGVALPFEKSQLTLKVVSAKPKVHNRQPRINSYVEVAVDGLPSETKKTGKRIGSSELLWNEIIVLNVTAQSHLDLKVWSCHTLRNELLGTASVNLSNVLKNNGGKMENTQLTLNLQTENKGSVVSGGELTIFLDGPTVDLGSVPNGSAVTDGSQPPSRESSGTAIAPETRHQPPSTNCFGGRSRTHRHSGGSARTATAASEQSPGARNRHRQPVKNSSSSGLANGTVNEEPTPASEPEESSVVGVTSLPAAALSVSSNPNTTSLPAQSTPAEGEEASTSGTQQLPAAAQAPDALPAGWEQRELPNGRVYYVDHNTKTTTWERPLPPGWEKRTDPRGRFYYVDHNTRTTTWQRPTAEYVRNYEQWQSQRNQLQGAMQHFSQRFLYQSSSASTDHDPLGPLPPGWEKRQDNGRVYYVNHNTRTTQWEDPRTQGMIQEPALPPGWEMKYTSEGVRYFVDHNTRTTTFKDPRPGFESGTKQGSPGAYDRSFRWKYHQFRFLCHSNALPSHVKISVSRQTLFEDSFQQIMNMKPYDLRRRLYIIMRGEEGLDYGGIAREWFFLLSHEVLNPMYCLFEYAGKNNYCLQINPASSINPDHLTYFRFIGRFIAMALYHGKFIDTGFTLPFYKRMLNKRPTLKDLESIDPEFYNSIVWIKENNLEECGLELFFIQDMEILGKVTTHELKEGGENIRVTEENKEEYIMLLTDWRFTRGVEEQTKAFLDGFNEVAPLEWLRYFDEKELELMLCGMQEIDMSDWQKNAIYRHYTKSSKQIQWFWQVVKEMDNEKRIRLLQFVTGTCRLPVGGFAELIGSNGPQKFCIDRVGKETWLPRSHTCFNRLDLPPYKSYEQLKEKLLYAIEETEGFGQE

Molecular target: T1, Flag-tagged murine LAPTM5 (Laptm5) (mouse) (UniProt Q61168)
T1 sequence: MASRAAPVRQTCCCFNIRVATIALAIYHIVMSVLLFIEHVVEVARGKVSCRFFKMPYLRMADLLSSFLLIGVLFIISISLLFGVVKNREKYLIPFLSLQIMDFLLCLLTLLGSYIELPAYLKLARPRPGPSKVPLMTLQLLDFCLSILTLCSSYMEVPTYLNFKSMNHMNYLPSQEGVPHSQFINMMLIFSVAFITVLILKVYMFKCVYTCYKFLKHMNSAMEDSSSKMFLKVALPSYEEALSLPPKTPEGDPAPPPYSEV
Assay: affinity purification with mass spectrometry; anti-Flag IP (rabbit IgG as control) from 786-O^LAPTM5 and Renca^Laptm5 cells treated or untreated with 10 ng/mL BMP4 for 60 min; TMT-labeled LC-MS/MS

“WWP2, endogenous in Renca cells (from UniProt Q9DBH0 1-870) (enzyme)” was tested, and the binding was “binds”.
